Results of single-concentration screens

The filed quantity is “Percent Effect” (%). The controls that fix the scale are not given in the record; negative values are as filed. Compounds were drawn at random from those tested, without regard to their results.

A: 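Whole-cell growth test on Mycobacterium tuberculosis, read after 3 days in glucose-containing 7H9 medium; the read-out is not stated. Compounds at 500 µM. The record gives no direction; compounds that gave an IC50 in retests scored well above the rest, so higher reads as more growth inhibition. Of about 18,000 compounds tested this way, about 1,400 (7.9%) reached 50% or more in at least one test.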
B: 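Whole-cell growth test on Mycobacterium tuberculosis, read after 4 days in a medium based on cholesterol and the lipid DPPC; the read-out is not stated. Tested at 500 µM. Direction is inferred from retests: higher values go with more growth inhibition. Size under these conditions: about 18,000 compounds, about 900 of them at 50% or above in at least one test.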

With COc1ccc(C(=O)NC2=NCCS2)c(O)c1 the screen gave A: 72.49%; B: 87.26%. With Cc1cc(NC(=O)C(C)S(=O)(=O)c2ccccn2)no1 (centres undefined) the screen gave A: 6.707%; B: -18.25%. Cc1cc(C(=O)N(C)C2CCN(C)C2)cc(C)n1 (centres undefined) read A: 9.529%; B: -5.926%. With CCOc1ccc(S(=O)(=O)NC2CCN(C)CC2)cc1 the screen gave A: 13.22%; B: 9.159%.

For CC(C)(C)OC(=O)N1CCN(C2CCCNC2)C(=O)C1 (centres undefined) the result was A: 6.998%; B: 2.227%. With CN(C)Cc1ccccc1CNC(=O)c1cnn(C)c1 the screen gave A: 4.923%; B: 1.68%. O=C(CNC(=O)OCC(F)(F)F)OCCn1cccn1 read A: -11.57%; B: -14.86%. CC(C)C(NC(=O)CN1CCCC1=O)c1ccccn1 (centres undefined) read A: -5.063%; B: -16.51%.

For N#CCCNC(=O)CN1CCCCC1 the result was A: 4.076%; B: 5.925%. With CN(C)C(=O)Nc1cc(F)cc(F)c1 the screen gave A: 102.5%; B: 117.3%. CC(NC(=O)C1CCCC1)c1ccc(NC(N)=O)cc1 (centres undefined) gave A: 9.678%; B: -10.75%. With CN(C)CCNC(=O)C1CCc2ccccc2N1 (centres undefined) the screen gave A: 33.38%; B: -2.171%.

O=C(c1ccco1)N1CCN(CC2(O)CCNC2)CC1 (centres undefined) read A: 2.019%; B: 5.456%. Result for NC(=O)CN1CCn2cccc2C1c1ccccc1 (centres undefined) was A: 0.2824%; B: -3.688%. For O=C1CN(C(=O)Nc2cc(Cl)ccc2F)CCN1 the result was A: 35.75%; B: 17.43%. Cc1occc1C(=O)NC1CCN(C2CC2)CC1 read A: -4.181%; B: -14.24%.

With CC(=O)c1cccc(-n2nnnc2SCC#N)c1 the screen gave A: 0.6095%; B: -5.624%. CNC(C)c1ccc(S(C)(=O)=O)cc1 (centres undefined) read A: 5.777%; B: -3.024%. For NCC1CCCN(C(N)=O)C1 (centres undefined) the result was A: 1.269%; B: -6.745%. COC1CCN(Cc2cccc(OCC(N)=O)c2)C1 (centres undefined) read A: 17.01%; B: 11.44%.

CC(C)NC(=O)N1CCNC(C)C1 (centres undefined) read A: 3.662%; B: 14.6%. Result for COCC(=O)NCCNS(=O)(=O)c1ccc(C)cc1 was A: 24.42%; B: -1.929%. Result for CN1C(=O)COc2cc(NS(=O)(=O)N(C)C)ccc21 was A: 2.928%; B: -12.92%. For CNC(=O)CN(C)C(=O)CCc1ccc(Br)cc1F the result was A: 75.82%; B: 70.28%.

For Cc1n[nH]cc1CNCCNC(=O)c1cccs1 the result was A: 11.72%; B: 7.793%. Cc1c(Br)cnn1CC(=O)N1CCOCC1 gave A: -10.18%; B: 7.944%. For CNc1ccnc(N2CCCC3(CN(C)C(=O)O3)C2)n1 (centres undefined) the result was A: -3.865%; B: -4.21%. CC(C)N(C)S(=O)(=O)N1CCCN(C)CC1 read A: 1.436%; B: -3.817%.

With O=C(NC(C1CCNCC1)[C@H]1C[C@H](O)C1)C1CC=CC1 (some centres undefined) the screen gave A: -9.257%; B: -10.71%. NC(C1CC1)C1(CO)CCOCC1 (centres undefined) read A: -12.11%; B: -16.8%. CC(NC(=O)c1ccc(=O)n(C)n1)C1CC1 (centres undefined) gave A: 25.9%; B: 22.68%. With C=C(Cl)CN1CCN(CC(=C)Cl)C(C(=O)N(C)C)C1 (centres undefined) the screen gave A: -3.054%; B: -10.23%.

CCn1ncnc1CN1CCC(NS(C)(=O)=O)CC1 read A: -5.136%; B: 4.383%. CN1C[C@@H]2CN(C(=O)[C@@H](O)Cc3ccccc3)C[C@@H]2C1 gave A: -7.678%; B: -14.18%. Result for CNC(=O)c1ccc(C)c(NC(=O)C2=CSCCO2)c1 was A: 5.955%; B: -1.358%. With O=C(CCc1ccccc1F)Nc1nnc[nH]1 the screen gave A: -8.73%; B: -14.32%.

CCOCC(=O)N1CCCn2ccnc2C1C(C)C (centres undefined) read A: 4.304%; B: -4.217%. With Cc1ccccc1OCC(=O)Nc1cn[nH]c1 the screen gave A: 17.48%; B: -0.6229%. Result for CC(=O)N(CC(=O)N1CCCCC1)c1ccc(C)cc1 was A: 16.04%; B: 5.658%. CCCOCCNC(=O)c1cc(C(F)(F)F)n[nH]1 gave A: 74.57%; B: 73.14%.

C=C(Cl)COC(=O)c1n[nH]c(=O)c2ccccc12 read A: -0.001438%; B: -3.289%.

Repeated from the top, 5 entries:

structure,A,B
COc1ccc(C(=O)NC2=NCCS2)c(O)c1,72.49,87.26
Cc1cc(NC(=O)C(C)S(=O)(=O)c2ccccn2)no1 (centres undefined),6.707,-18.25
Cc1cc(C(=O)N(C)C2CCN(C)C2)cc(C)n1 (centres undefined),9.529,-5.926
CCOc1ccc(S(=O)(=O)NC2CCN(C)CC2)cc1,13.22,9.159
CC(C)(C)OC(=O)N1CCN(C2CCCNC2)C(=O)C1 (centres undefined),6.998,2.227

The values are deposited in ChEMBL (CHEMBL3988442, “University of Dundee, Small-Polar-MMV Screening Library” (2021)).